{"source": "PubChem BioAssay AID1259308 (NCATS, 2017)", "purpose": "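Candidate targets for better recombinant protein yield in mammalian cells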 (primary screen)", "cells": "human HEK293 embryonic kidney cells stably expressing firefly luciferase (HEK-CMV-Luc2-Hygro)", "reagents": "single siRNA against human genes, 0.8 pmol siRNA per well", "time to read-out": "72 h", "detection": "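Reporter luminescence and viable-cell signal on separate replicate plates, given as percent of non-targeting control and median/MAD z-scores, plus per-cell luciferase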", "scale": "total luciferase, z-score: higher = more reporter protein produced", "active means": "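Active when the median/MAD z-score for overall luciferase is greater than 3; a gene was taken forward for validation with new siRNAs if at least two of its three siRNAs passed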", "meaning of the calls": "active = raised luciferase; inactive = no rise", "note": "The whole screen tested about 59,000 reagents; below is a part drawn at random. About 1,510 of all reagents (2.6%) were called active. 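Calls use total luciferase alone and ignore viability, so some active siRNAs may act by altering cell number.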 The numbers tell different reagents against one gene apart. Not all columns of the deposit are shown."}
{"target": "TRIM29", "siRNA no.": 1, "total luciferase, z-score": 0.169, "activity call": "inactive"}
{"target": "TRIM29", "siRNA no.": 2, "total luciferase, z-score": 1.78, "activity call": "inactive"}
{"target": "TRIM29", "siRNA no.": 3, "total luciferase, z-score": -0.584, "activity call": "inactive"}
{"target": "PDSS1", "siRNA no.": 1, "total luciferase, z-score": 0.504, "activity call": "inactive"}
{"target": "PDSS1", "siRNA no.": 2, "total luciferase, z-score": -0.0888, "activity call": "inactive"}
{"target": "PDSS1", "siRNA no.": 3, "total luciferase, z-score": -0.812, "activity call": "inactive"}
{"target": "LINC00851", "siRNA no.": 1, "total luciferase, z-score": -1.16, "activity call": "inactive"}
{"target": "LINC00851", "siRNA no.": 2, "total luciferase, z-score": -0.233, "activity call": "inactive"}
{"target": "LINC00851", "siRNA no.": 3, "total luciferase, z-score": -2.44, "activity call": "inactive"}
{"target": "ITGA2", "siRNA no.": 1, "total luciferase, z-score": -0.397, "activity call": "inactive"}
{"target": "ITGA2", "siRNA no.": 2, "total luciferase, z-score": 0.517, "activity call": "inactive"}
{"target": "ITGA2", "siRNA no.": 3, "total luciferase, z-score": 3.66, "activity call": "active"}
{"target": "TRHDE", "siRNA no.": 1, "total luciferase, z-score": 0.888, "activity call": "inactive"}
{"target": "TRHDE", "siRNA no.": 2, "total luciferase, z-score": -1.76, "activity call": "inactive"}
{"target": "TRHDE", "siRNA no.": 3, "total luciferase, z-score": -0.789, "activity call": "inactive"}
{"target": "BOP1", "siRNA no.": 1, "total luciferase, z-score": 1.6, "activity call": "inactive"}
{"target": "BOP1", "siRNA no.": 2, "total luciferase, z-score": -1.14, "activity call": "inactive"}
{"target": "BOP1", "siRNA no.": 3, "total luciferase, z-score": -0.698, "activity call": "inactive"}
{"target": "ARL6IP6", "siRNA no.": 1, "total luciferase, z-score": 2.73, "activity call": "inactive"}
{"target": "ARL6IP6", "siRNA no.": 2, "total luciferase, z-score": 0.485, "activity call": "inactive"}
{"target": "ARL6IP6", "siRNA no.": 3, "total luciferase, z-score": 0.572, "activity call": "inactive"}
{"target": "EPM2AIP1", "siRNA no.": 1, "total luciferase, z-score": -1.08, "activity call": "inactive"}
{"target": "EPM2AIP1", "siRNA no.": 2, "total luciferase, z-score": 2.84, "activity call": "inactive"}
{"target": "EPM2AIP1", "siRNA no.": 3, "total luciferase, z-score": -0.997, "activity call": "inactive"}
{"target": "CRLF2", "siRNA no.": 1, "total luciferase, z-score": -0.226, "activity call": "inactive"}
{"target": "CRLF2", "siRNA no.": 2, "total luciferase, z-score": 0.092, "activity call": "inactive"}
{"target": "CRLF2", "siRNA no.": 3, "total luciferase, z-score": 0.671, "activity call": "inactive"}
{"target": "TRMT1L", "siRNA no.": 1, "total luciferase, z-score": 1.27, "activity call": "inactive"}
{"target": "TRMT1L", "siRNA no.": 2, "total luciferase, z-score": -1.23, "activity call": "inactive"}
{"target": "TRMT1L", "siRNA no.": 3, "total luciferase, z-score": 0.149, "activity call": "inactive"}
{"target": "GLYATL1P4", "siRNA no.": 1, "total luciferase, z-score": -0.933, "activity call": "inactive"}
{"target": "GLYATL1P4", "siRNA no.": 2, "total luciferase, z-score": -0.725, "activity call": "inactive"}
{"target": "GLYATL1P4", "siRNA no.": 3, "total luciferase, z-score": -1.68, "activity call": "inactive"}

An excerpt taken from the entries so far, as a working copy:
{"target": "EPM2AIP1", "siRNA no.": 3, "total luciferase, z-score": -0.997, "activity call": "inactive"}
{"target": "CRLF2", "siRNA no.": 1, "total luciferase, z-score": -0.226, "activity call": "inactive"}
{"target": "CRLF2", "siRNA no.": 2, "total luciferase, z-score": 0.092, "activity call": "inactive"}
